Measurements published in US10111897B2, “Compositions and methods for treating cancer with JAK2 activity” (Duke University, priority 2013, dated 2018).
Some results were stated once for a whole list of compounds, not compound by compound. At least one compound was matched to its structure with a doubt left.

Experiments:
HEL92.1.7 cells = test: GI50 assay (Cell Titer Glo viability); type: cell-based, human; settings: HEL92.1.7 expressing myr-Akt or Ras(G12V) vs control; eight point GI50 validation assays
Procedure: (§1) Cells were seeded into 6-well plates and infected with the desired ORF activating allele or control vector. Lentiviruses were produced and applied as previously described (42). Following two days of puromycin selection (2 μg/ml), infected cells were seeded into 96-well plates at 5,000 cells/well.
(§2) To generate […] curves, cells were treated with vehicle (DMSO) or an eight-log serial dilution of drug to yield final concentrations of […]. Each treatment condition was represented by at least three replicates. Three to four days after drug addition, cell viability was measured using Cell Titer Glo® (Promega). Relative viability was then calculated by normalizing luminescence values for each treatment condition to control treated wells.
(§3) To generate GI50 curves for drug combinations, slight modifications are made. Primary drug was applied and diluted as above while the second drug was kept at a constant concentration across all wells except the DMSO-only condition. Viability for all primary drug dilutions was then calculated relative to luminescence values from the secondary drug-only condition. Dose-response curves were fit using Graph pad/Prism 6 software.

Set2 cells = test: GI50 assay (Cell Titer Glo viability); type: cell-based, human; settings: Set2 expressing myr-Akt or Ras(G12V) vs control; eight point GI50 validation assays
Procedure: as §1, §2, §3

N#CCNC(=O)c1ccc(-c2ccnc(Nc3ccc(N4CCOCC4)cc3)n2)cc1 [CYT387]
shifts in the GI50 concentrations upon Akt and Ras activation (HEL92.1.7 cells): 10- to 50 fold | shifts in the GI50 concentrations upon Akt and Ras activation (Set2 cells): 10- to 50 fold
